The list shows a part of the results. The main result of the screen is listed elsewhere. These columns were measured beside it and carry no call. Most of these compounds were active or inconclusive in the main read-out, so they are no random draw. The note in brackets gives the kind of curve behind each potency; many fits are weak.
Assay: qHTS Assay for Lipid Storage Modulators in Drosophila S3 Cells;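 on cell number change: cells counted by Cell Tracker Red CMTPX staining in the red channel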
Conditions: BODIPY lipid droplet fluorescence, 18-24 h; for cell number change: measured here: cell count max response, cells fed with added oleic acid
Summary of the method: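 Laser-scanning cytometry quantifies lipid droplet accumulation (500–530 nm total intensity; droplet/cell object ratio) in oleic acid-fed (400 uM added) Drosophila S3 cells treated with a concentration series. 20 uM Triacsin C defined 100% inhibition.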

[1] = measured here: lipid fluorescence (Fed channel) AC50, cells fed with added oleic acid
[2] = measured here: cell number channel AC50, cells fed with added oleic acid

SMILES	cell number change	AC50 [1]	AC50 [2]
Cc1nc2ccccc2n1CCCOc1ccccc1	-20.1%	29.1 µM [falling, single point]	
Cc1cc(Cl)ccc1NC(=S)N1CCN(C(=O)c2ccco2)CC1	45.7%		25.9 µM [rising, single point]
Cc1nc2ccc(Br)cc2c2c1CC(CO)O2 (stereo unspecified)	14.3%	0.0731 µM [rising, full curve, poor fit]	
COc1ccc(-c2csc(Nc3ncccc3C)n2)cc1	-24%	9.2 µM [falling, partial curve, poor fit]	
Cn1c2ccc(F)cc2c2ncn(CCCN(CCO)CCO)c(=O)c21	4.06%		
O=C1C(=O)N(CCN2CCOCC2)C(c2ccc(Cl)cc2)/C1=C(/O)c1ccc(S(=O)(=O)N2CCOCC2)cc1 (stereo unspecified)	11.3%	29.1 µM [rising, single point]	
COc1ccc(CNC(=O)COC(=O)c2cc(-c3cccs3)nc3ccccc23)cc1OC		0.13 µM [rising, full curve, poor fit]	0.116 µM [rising, full curve, poor fit]
Cc1cc(NC(=O)c2ccc(Cl)cc2)n(-c2ccccc2)n1	13.7%	10.3 µM [rising, partial curve]	
COc1ccc(CN2C(=O)CS(=O)CC2=O)cc1OC	-69.3%	20.6 µM [falling, partial curve]	8.2 µM [falling, partial curve]
Cc1nnc2sc(-c3ccc(N(C)C)cc3)nn2c1=O	-30.6%		0.184 µM [falling, full curve, poor fit]
CC(C(=O)NC1CCCC1)N(Cc1ccc2c(c1)OCO2)C(=O)c1snc(C(N)=O)c1N (stereo unspecified)	-14.1%		
COc1ccc(/C=C(\NC(=O)c2cccs2)C(=O)NCc2ccco2)cc1OC	-61.2%	16.4 µM [falling, partial curve]	1.3 µM [falling, full curve]
O=C(Cc1n[nH]c(=O)c2ccccc12)OCC(=O)c1ccc(F)cc1	14.5%		
Cc1ccccc1-n1ncc2c1CC(C)(C)CC2NC(=O)C1CCC1 (stereo unspecified)			1.64 µM [rising, single point]
CCC(=O)NC(c1ccc(OC)c(OC)c1)c1cc(Cl)c2cccnc2c1O (stereo unspecified)	-34.9%	16.4 µM [falling, partial curve, poor fit]	10.3 µM [falling, partial curve, poor fit]
CS(=O)(=O)N(CC(=O)N1CCN(c2ccccc2F)CC1)c1cccc(C(F)(F)F)c1	-16.9%	2.06 µM [falling, single point]	
COc1cc(C=O)ccc1OC(=O)c1ccc(C(C)C)cc1	-42.2%	6.51 µM [falling, single point]	6.51 µM [falling, single point]
O=C1CNC(=S)N1Cc1ccc(Cl)cc1	-1.3%	0.00461 µM [falling, full curve, poor fit]	
COc1ccc(C(=O)COC(=O)CNC(=O)c2cccc(OC(F)F)c2)cc1		4.11 µM [falling, partial curve]	1.03 µM [falling, partial curve]
c1ccc2c(-c3nc(-c4ccncc4)no3)cccc2c1	-27.9%	29.1 µM [falling, single point]	

SMILES	cell number change	AC50 [1]	AC50 [2]
COCCCNC(=S)Nc1cccc2ncccc12	-47.1%		
COc1ccc(OCc2nn3c(-c4cccc(OC)c4)nnc3s2)cc1	-12.5%	0.092 µM [falling, single point]	
CCn1c(SCC(=O)NCc2ccc3c(c2)OCO3)nnc1-c1ccco1	29.5%	1.3 µM [falling, full curve]	
c1ccc(CCNCCOc2ccccc2)cc1	9.09%		
CCC(c1nnc(SCC(=O)N2CC3(C)CC2CC(C)(C)C3)o1)N(C)C (stereo unspecified)	-1.88%	2.31 µM [falling, single point]	
CCOC(=O)C1CCCN(Cc2ccc(OCC)cc2)C1 (stereo unspecified)	-75%		29.1 µM [falling, single point]
CCN(CC)c1ccc(C=Nc2cc(C)cc(C)c2)c(O)c1	-34.4%	20.6 µM [falling, partial curve]	13 µM [falling, partial curve]
Cc1cccc2c1NC(=O)/C2=C\C(=O)c1cccs1	-42.4%	0.58 µM [rising, full curve]	
Cc1ccc(NC(=O)CCCc2nc3ccccc3c(=O)[nH]2)c(Cl)c1	-5.49%	3.66 µM [falling, single point]	
CCc1n[nH]c(=S)n1/N=C/c1ccc2c(c1)OCO2	-6.74%		
Cn1nc(OC(=O)Nc2cccc(Cl)c2)cc1C(F)(F)F	-9.07%	29.1 µM [falling, partial curve]	
CCc1nnc(NS(=O)(=O)c2ccc(N/C=C\C(=O)c3ccc(C)cc3)cc2)s1	20.5%	20.6 µM [rising, single point]	
COc1nc(Nc2ccc(C(C)C)cc2)nc(OC)n1	-56.2%		25.9 µM [falling, single point]
Cc1oc(/N=C/c2ccc3c(c2)OCO3)c(C#N)c1C		1.64 µM [rising, partial curve]	
O=C(/C=C/c1cccs1)Nc1ccc(N2CCOCC2)c(S(=O)(=O)Nc2cc(Cl)ccc2Cl)c1	-0.23%	4.11 µM [rising, partial curve]	
O=C(Nc1ccc(-n2cc(Br)cn2)cc1)c1ccncc1	-9.47%	10.3 µM [falling, partial curve, poor fit]	
Cc1ncc(C(=O)O)c(C(=O)O)c1N		14.6 µM [rising, partial curve, poor fit]	
Nc1ccc2nc(SCc3ccccc3F)sc2c1	34.6%	29.1 µM [rising, single point]	29.1 µM [rising, single point]
O=S(=O)(CCc1ccncc1)Cc1ccc2c3c(cccc13)CC2	25.5%		
O=C(Nc1ccc(C(F)(F)F)cc1)c1cc(S(=O)(=O)NCC2COc3ccccc3O2)ccc1F (stereo unspecified)	-39.3%		29.1 µM [falling, single point]

Laid out differently: results already given
SMILES,cell number change,AC50 [1],AC50 [2]
CCN(CC)c1ccc(C=Nc2cc(C)cc(C)c2)c(O)c1,-34.4%,"20.6 µM [falling, partial curve]","13 µM [falling, partial curve]"
Cc1cccc2c1NC(=O)/C2=C\C(=O)c1cccs1,-42.4%,"0.58 µM [rising, full curve]",
Cc1ccc(NC(=O)CCCc2nc3ccccc3c(=O)[nH]2)c(Cl)c1,-5.49%,"3.66 µM [falling, single point]",
CCc1n[nH]c(=S)n1/N=C/c1ccc2c(c1)OCO2,-6.74%,,

The listing continues:

SMILES	cell number change	AC50 [1]	AC50 [2]
CCC(C)[C@H](NC(=O)[C@@H]1Cc2c([nH]c3ccccc23)C2c3ccccc3C(=O)N21)C(=O)N1CCC[C@@H]1C(=O)O (stereo partly specified)	-22.9%	0.0651 µM [falling, full curve, poor fit]	
CCN(CC(=O)Nc1cc(Cl)ccc1C)C(=O)Cc1ccsc1	13.8%	4.11 µM [rising, full curve]	
CC(=O)CCC(=O)OCC(=O)c1ccc(C(F)(F)F)cc1	-42.9%	1.16 µM [falling, full curve, poor fit]	0.92 µM [falling, full curve, poor fit]
Cc1ccc(S(=O)(=O)N2CCC(C(=O)NCc3cccnc3)CC2)cc1	31.5%	23.1 µM [rising, partial curve]	0.411 µM [rising, full curve, poor fit]
O=C(NNC(=O)c1cccs1)c1csc(N2CCOCC2)n1			0.146 µM [rising, full curve, poor fit]
O=C(/C=C/c1cccc(Cl)c1)NCc1ccccc1		0.00461 µM [falling, full curve, poor fit]	0.58 µM [falling, single point]
COc1ccc(NC(=O)CSc2nnc(C3CC3)n2C)cc1S(=O)(=O)N1CCOCC1	-5.1%	2.06 µM [rising, partial curve]	
C(=NCCCN1CCOCC1)c1ccc2c(c1)OCO2	13.5%		
O=C(OCCCc1cc2ccccc2c(=O)o1)c1ccco1	-9.7%	1.03 µM [falling, single point]	1.16 µM [falling, single point]
Cc1ccc(N2CC(C)Cn3c2nc2c3c(=O)[nH]c(=O)n2C)cc1 (stereo unspecified)	4.17%	29.1 µM [falling, single point]	
CCOc1ccc(Br)cc1CNc1ccc2c(c1)OCCO2	-12.6%	29.1 µM [falling, single point]	
O=C(O)C(Cc1c[nH]c2ccccc12)NS(=O)(=O)c1ccccc1 (stereo unspecified)	-6.79%	1.84 µM [rising, partial curve]	1.84 µM [rising, partial curve]
CC(NC(=O)CCN1N=C(c2ccccc2)CCC1=O)c1ccc2c(c1)OCCO2 (stereo unspecified)	-11.5%		0.82 µM [rising, partial curve, poor fit]
CN(C)CCN1C(=O)C(=O)/C(=C(/O)c2ccc(OCc3ccccc3)cc2)C1c1ccncc1 (stereo unspecified)	1.57%	4.11 µM [falling, partial curve]	
Cc1nc2ccccc2c(=O)n1NC(=O)c1ccccc1F	-12.6%	0.58 µM [falling, single point]	0.00517 µM [falling, full curve, poor fit]
CC/S(C)=N/S(=O)(=O)c1ccc(C)cc1 (stereo unspecified)	-31.3%	10.3 µM [falling, partial curve]	0.517 µM [falling, full curve, poor fit]
COCCOC(=O)C1=C(C)NC2=C(C(=O)CC(C)(C)C2)C1c1ccc2c(c1)OCO2 (stereo unspecified)		1.16 µM [rising, single point]	
CCOC(=O)/C=c1\s/c(=C\c2ccc(C(=O)OC)cc2)c(=O)n1CC(=O)Nc1ccccc1	15.3%		6.51 µM [rising, single point]
O=C(COC(=O)/C=C/c1ccc(Cl)cc1)NCCN1C(=O)CSC1=O	116%		

Source: PubChem BioAssay AID2685 (National Center for Advancing Translational Sciences (NCATS), 2010)
